This is an account of results in the supplement of paper PMC4604168 (melanoma cell lines).

This is one part of the list. Many values rest on one well or one pass, so single values are uncertain.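 Cells were imaged in 1,536-well plates, and nuclei stained with an antibody against cleaved PARP were counted against all DNA-stained nuclei to give the apoptosis fraction. Screening doses were chosen to leave most cells alive, and resting and induced cleaved-PARP levels differ strongly between cell lines.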

This assay has as its system WM1716. As to the kind of experiment: cleaved PARP positive nuclei fraction relative to DMSO control; melanoma cells; higher = more apoptosis. The note with it: library dose: low library concentration; 72 h.
As to `Cc1cc(Nc2cc(N3CCN(C)CC3)nc(/C=C/c3ccccc3)n2)n[nH]1` + CN(C)S(=O)(=O)c1ccc2c(c1)/C(=C/c1cc3c([nH]1)CCCC3)C(=O)N2 [SU6656] (first compound 0.04 µM, partner dose 0.4 µM), the “cleaved PARP positive nuclei fraction” value was found to be 33.7%.

On to `Nc1ncn([C@H]2C[C@H](O)[C@@H](CO)O2)c(=O)n1` [decitabine] + CCCCCCCCCCCC1=C(O)C(=O)C=C(O)C1=O [Embelin] (first compound 0.1 µM, partner dose 1.2 µM), for which the “cleaved PARP positive nuclei fraction” value came out at 65.4%.

As to `Nc1nc(F)nc2c1ncn2[C@@H]1O[C@H](CO)[C@@H](O)[C@@H]1O` [fludarabine] + CCCCCCCCCCCC1=C(O)C(=O)C=C(O)C1=O [Embelin] (first compound 0.2 µM, partner dose 1.2 µM), the “cleaved PARP positive nuclei fraction” value came to 180%.

Take `O=C(O)c1ccc2c(c1)nc(Nc1cccc(Cl)c1)c1ccncc12` + COc1ccc2c(c1)CCC1C2CCC2(C)C(NCCCCCCN3C(=O)C=CC3=O)CCC12 [U73122] (first compound 0.4 µM, partner dose 0.4 µM): the “cleaved PARP positive nuclei fraction” value was 181%.

In the case of `Nc1ccn([C@@H]2O[C@H](CO)[C@@H](O)C2(F)F)c(=O)n1` [gemcitabine] + CO[C@@H]1[C@H](N(C)C(=O)c2ccccc2)C[C@H]2O[C@]1(C)n1c3ccccc3c3c4c(c5c6ccccc6n2c5c31)C(=O)NC4 [Midostaurin] (first compound 0.0004 µM, partner dose 0.08 µM), the “cleaved PARP positive nuclei fraction” value is 136%.

As for `CN1CCN(c2ccc3nc(-c4c(N)c5c(F)cccc5[nH]c4=O)[nH]c3c2)CC1` [Dovitinib] + O=C(O)C(=O)Nc1sc2c(c1C(=O)O)CCNC2 [TCS401] (first compound 0.1 µM, partner dose 1.66667 µM), the “cleaved PARP positive nuclei fraction” value turned out to be 147%. Under `Nc1ncn([C@H]2C[C@H](O)[C@@H](CO)O2)c(=O)n1` [decitabine] + COC(=O)c1sccc1S(=O)(=O)Nc1ccc(Nc2ccccc2)cc1OC [GSK0660] (first compound 0.1 µM, partner dose 1 µM) stands 158%; under `Cc1cc(Nc2cc(N3CCN(C)CC3)nc(/C=C/c3ccccc3)n2)n[nH]1` + Cc1cc(N2CCOCC2)cc2[nH]c(-c3c(NC[C@@H](O)c4cccc(Cl)c4)cc[nH]c3=O)nc12 [BMS536924] (first compound 0.04 µM, partner dose 0.2 µM), 145%. The same measure for `Cn1c(=O)n(-c2ccc(C(C)(C)C#N)cc2)c2c3cc(-c4cnc5ccccc5c4)ccc3ncc21` + NC(=O)Nc1cc(-c2cccc(F)c2)sc1C(=O)N[C@H]1CCCNC1 [AZD7762] (first compound 0.004 µM, partner dose 0.02 µM): 186%. As for `C=C(c1ccc(C(=O)O)cc1)c1cc2c(cc1C)C(C)(C)CCC2(C)C` [Bexarotene] + O=C(Nc1ccccc1)c1cc([N+](=O)[O-])ccc1Cl [GW9662] (first compound 2 µM, partner dose 2 µM), the “cleaved PARP positive nuclei fraction” value turned out to be 36.9%. Consider `CNC(=O)c1cc(Oc2ccc(NC(=O)Nc3ccc(Cl)c(C(F)(F)F)c3)cc2)ccn1` [sorafenib] + COC(=O)c1sccc1S(=O)(=O)Nc1ccc(Nc2ccccc2)cc1OC [GSK0660] (first compound 0.4 µM, partner dose 1 µM), for which the “cleaved PARP positive nuclei fraction” value was 99.6%. The same measure for `CNC(=O)c1cc(Oc2ccc(NC(=O)Nc3ccc(Cl)c(C(F)(F)F)c3)cc2)ccn1` [sorafenib] + CCCCCCCCCCCC1=C(O)C(=O)C=C(O)C1=O [Embelin] (first compound 0.4 µM, partner dose 1.2 µM): 110%; for `CS(=O)(=O)CCNCc1ccc(-c2ccc3ncnc(Nc4ccc(OCc5cccc(F)c5)c(Cl)c4)c3c2)o1` [lapatinib] + CN(C)S(=O)(=O)c1ccc2c(c1)/C(=C/c1cc3c([nH]1)CCCC3)C(=O)N2 [SU6656] (first compound 0.8 µM, partner dose 0.4 µM): 92.6%. In the case of `C[C@@H](Oc1cc(-c2cnn(C3CCNCC3)c2)cnc1N)c1c(Cl)ccc(F)c1Cl` [Crizotinib] + CCCCCCCCCCCC1=C(O)C(=O)C=C(O)C1=O [Embelin] (first compound 0.2 µM, partner dose 1.2 µM), the “cleaved PARP positive nuclei fraction” value stood at 90.9%. As for `Nc1nc(F)nc2c1ncn2[C@@H]1O[C@H](CO)[C@@H](O)[C@@H]1O` [fludarabine] + Cc1cc(N2CCOCC2)cc2[nH]c(-c3c(NC[C@@H](O)c4cccc(Cl)c4)cc[nH]c3=O)nc12 [BMS536924] (first compound 0.2 µM, partner dose 0.2 µM), the “cleaved PARP positive nuclei fraction” value was 41%. The same measure for `Cc1cc(Nc2cc(N3CCN(C)CC3)nc(/C=C/c3ccccc3)n2)n[nH]1` + COc1ccc(COc2ccc(Cc3cnc(N)nc3N)cc2OC)cc1 [GW2580] (first compound 0.04 µM, partner dose 1 µM): 116%; for `CNC(=O)c1cc(Oc2ccc(NC(=O)Nc3ccc(Cl)c(C(F)(F)F)c3)cc2)ccn1` [sorafenib] + NCC(=O)Nc1ccc(-n2nc(C(F)(F)F)cc2-c2ccc3c(ccc4ccccc43)c2)cc1 [OSU03012] (first compound 0.4 µM, partner dose 1 µM): 133%. The same measure for `Cc1cc(Nc2cc(N3CCN(C)CC3)nc(/C=C/c3ccccc3)n2)n[nH]1` + OCCn1cc(-c2cnc3nnn(Cc4ccc5ncccc5c4)c3n2)cn1 [PF04217903] (first compound 0.04 µM, partner dose 1 µM): 104%. Under `Nc1nc(F)nc2c1ncn2[C@@H]1O[C@H](CO)[C@@H](O)[C@@H]1O` [fludarabine] + CCc1ccc(CCOc2ccc(CC3SC(=O)NC3=O)cc2)nc1 [pioglitazone] (first compound 0.2 µM, partner dose 2 µM) stands 58.1%; under `CS(=O)(=O)CCNCc1ccc(-c2ccc3ncnc(Nc4ccc(OCc5cccc(F)c5)c(Cl)c4)c3c2)o1` [lapatinib] + OCCn1cc(-c2cnc3nnn(Cc4ccc5ncccc5c4)c3n2)cn1 [PF04217903] (first compound 0.8 µM, partner dose 1 µM), 89.9%. On to `CNC(=O)c1cc(Oc2ccc(NC(=O)Nc3ccc(Cl)c(C(F)(F)F)c3)cc2)ccn1` [sorafenib] + Cc1cc([N+](=O)[O-])ccc1NS(=O)(=O)c1cc(Cl)ccc1Cl [FH535] (first compound 0.4 µM, partner dose 1 µM), for which the “cleaved PARP positive nuclei fraction” value came out at 190%.

Consider `CN1CCN(c2ccc3nc(-c4c(N)c5c(F)cccc5[nH]c4=O)[nH]c3c2)CC1` [Dovitinib] + COc1ccc2c(c1)CCC1C2CCC2(C)C(NCCCCCCN3C(=O)C=CC3=O)CCC12 [U73122] (first compound 0.1 µM, partner dose 0.4 µM), for which the “cleaved PARP positive nuclei fraction” value came to 316%. Take `O=C(O)[C@@H]1[O][Sb](=[O])([O][Sb]2(=[O])[O][C@H]([C@H](O)CO)[C@H](O)[C@H](C(=O)O)[O]2)[O][C@H]([C@H](O)CO)[C@@H]1O` (stereo not given in full) [stibogluconate] + COc1cc(N2CCC(N3CCN(C)CC3)CC2)ccc1Nc1ncc(Cl)c(Nc2ccccc2S(=O)(=O)C(C)C)n1 [NVP-TAE684] (first compound 2 µM, partner dose 0.08 µM): the “cleaved PARP positive nuclei fraction” value came out at 116%. Under `CCCS(=O)(=O)Nc1ccc(F)c(C(=O)c2c[nH]c3ncc(Cl)cc23)c1F` + N#Cc1c(O)c2c(-c3ccc(-c4ccccc4O)cc3)csc2[nH]c1=O [A769662] (first compound 0.08 µM, partner dose 2 µM) stands 80.9%; under `CN1CCN(c2ccc3nc(-c4c(N)c5c(F)cccc5[nH]c4=O)[nH]c3c2)CC1` [Dovitinib] + Cc1cc(N2CCOCC2)cc2[nH]c(-c3c(NC[C@@H](O)c4cccc(Cl)c4)cc[nH]c3=O)nc12 [BMS536924] (first compound 0.1 µM, partner dose 0.2 µM), 155%; under `C[C@@H](Oc1cc(-c2cnn(C3CCNCC3)c2)cnc1N)c1c(Cl)ccc(F)c1Cl` [Crizotinib] + COc1ccc(-c2ccc3c(N4CCOCC4)nc(N4C[C@@H](C)O[C@@H](C)C4)nc3n2)cc1CO [KU0063794] (first compound 0.2 µM, partner dose 0.02 µM), 108%. Under `O=C(O)[C@@H]1[O][Sb](=[O])([O][Sb]2(=[O])[O][C@H]([C@H](O)CO)[C@H](O)[C@H](C(=O)O)[O]2)[O][C@H]([C@H](O)CO)[C@@H]1O` (stereo not given in full) [stibogluconate] + O=C(O)c1ccc(-c2c[nH]c3ncc(-c4ccccc4)cc23)cc1C1CCCC1 [GSK650394] (first compound 2 µM, partner dose 0.16 µM) stands 55.5%; under `Cn1c(=O)n(-c2ccc(C(C)(C)C#N)cc2)c2c3cc(-c4cnc5ccccc5c4)ccc3ncc21` + CCCCCCCCCCCC1=C(O)C(=O)C=C(O)C1=O [Embelin] (first compound 0.004 µM, partner dose 1.2 µM), 54.3%. With `CN1CCN(c2ccc3nc(-c4c(N)c5c(F)cccc5[nH]c4=O)[nH]c3c2)CC1` [Dovitinib] + NCC(=O)Nc1ccc(-n2nc(C(F)(F)F)cc2-c2ccc3c(ccc4ccccc43)c2)cc1 [OSU03012] (first compound 0.1 µM, partner dose 1 µM), the “cleaved PARP positive nuclei fraction” value stood at 135%. Under `C=C(c1ccc(C(=O)O)cc1)c1cc2c(cc1C)C(C)(C)CCC2(C)C` [Bexarotene] + Cc1cc([N+](=O)[O-])ccc1NS(=O)(=O)c1cc(Cl)ccc1Cl [FH535] (first compound 2 µM, partner dose 1 µM) stands 124%.
